No constants are given. Whether binding was seen depends on the method and setting. For part of these data: In cells and extracts the contact can be indirect. Some entries that bind do so weakly or less than the wild type. For part of these data: Sequences can lack the tags named with a protein. Blank lines part the entries; values can stand above or below the molecule they belong to.
Columns and labels:
[1] = molecular target: FAT1 (endogenous wild-type, HUVECs) (human (endogenous in HUVECs)) (UniProt Q14517); assay: co-IP; endogenous FAT1 immunoprecipitated with anti-FAT1 antibody from HUVEC lysates (150 mM NaCl, 25 mM Tris-HCl pH 7.4, 1 mM EDTA, 1% NP-40, 5% glycerol), overnight at 4 °C, A/G-Sepharose; cells transfected with control siRNA or siRNA against FAT1 or MIB2; IgG as control
[2] = molecular target: T1, MIB2 fused to maltose binding protein (UniProt Q96AX9); assay: pull-down; MBP pull-down: MBP-MIB2 as bait with one prey (FAT1^ICD-GST or His-tagged YAP), 10 µM each in PBS, 1 h at room temperature, then 2 h at 4 °C with MBP binding beads; eluted with 10 mM maltose; immunoblot; both purified
T1 sequence: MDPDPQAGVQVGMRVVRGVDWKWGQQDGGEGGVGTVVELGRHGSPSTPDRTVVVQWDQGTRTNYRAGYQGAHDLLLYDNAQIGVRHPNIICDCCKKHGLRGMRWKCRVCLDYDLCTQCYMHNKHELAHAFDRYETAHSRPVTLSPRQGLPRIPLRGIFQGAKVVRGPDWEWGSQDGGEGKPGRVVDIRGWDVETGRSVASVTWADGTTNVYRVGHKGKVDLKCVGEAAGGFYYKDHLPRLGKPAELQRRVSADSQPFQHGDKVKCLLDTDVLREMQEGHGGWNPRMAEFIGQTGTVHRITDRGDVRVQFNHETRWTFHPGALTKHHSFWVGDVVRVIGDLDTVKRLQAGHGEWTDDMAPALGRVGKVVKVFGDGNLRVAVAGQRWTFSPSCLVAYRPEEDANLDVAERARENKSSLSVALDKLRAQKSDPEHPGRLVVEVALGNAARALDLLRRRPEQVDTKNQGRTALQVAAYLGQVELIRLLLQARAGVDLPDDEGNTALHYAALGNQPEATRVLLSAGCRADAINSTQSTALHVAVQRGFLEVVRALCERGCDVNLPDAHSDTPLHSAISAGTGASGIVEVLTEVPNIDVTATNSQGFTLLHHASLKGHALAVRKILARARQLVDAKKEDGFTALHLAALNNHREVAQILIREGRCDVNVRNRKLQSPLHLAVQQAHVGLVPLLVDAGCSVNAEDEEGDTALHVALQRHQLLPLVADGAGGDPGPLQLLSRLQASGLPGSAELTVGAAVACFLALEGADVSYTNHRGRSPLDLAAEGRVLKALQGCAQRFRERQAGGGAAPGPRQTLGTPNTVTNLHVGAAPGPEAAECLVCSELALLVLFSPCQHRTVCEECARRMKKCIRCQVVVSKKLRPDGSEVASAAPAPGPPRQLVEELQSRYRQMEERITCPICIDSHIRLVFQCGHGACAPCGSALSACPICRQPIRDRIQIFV

Sequences of proteins named here, by UniProt entry; tags and fusion partners are left off.
UniProt P46937: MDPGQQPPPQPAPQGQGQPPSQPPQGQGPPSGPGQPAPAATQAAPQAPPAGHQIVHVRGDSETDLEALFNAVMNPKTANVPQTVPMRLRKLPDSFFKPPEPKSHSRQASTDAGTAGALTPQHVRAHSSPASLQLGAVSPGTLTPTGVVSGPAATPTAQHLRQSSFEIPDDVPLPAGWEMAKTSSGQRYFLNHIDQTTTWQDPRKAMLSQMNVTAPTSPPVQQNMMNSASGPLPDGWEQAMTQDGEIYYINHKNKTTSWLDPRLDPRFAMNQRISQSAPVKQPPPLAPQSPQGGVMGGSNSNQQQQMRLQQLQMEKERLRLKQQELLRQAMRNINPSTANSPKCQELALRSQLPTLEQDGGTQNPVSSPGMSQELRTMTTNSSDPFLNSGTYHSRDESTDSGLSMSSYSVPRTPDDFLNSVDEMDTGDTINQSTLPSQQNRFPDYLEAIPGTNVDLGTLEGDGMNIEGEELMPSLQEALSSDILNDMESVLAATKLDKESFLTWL
UniProt Q9GZV5: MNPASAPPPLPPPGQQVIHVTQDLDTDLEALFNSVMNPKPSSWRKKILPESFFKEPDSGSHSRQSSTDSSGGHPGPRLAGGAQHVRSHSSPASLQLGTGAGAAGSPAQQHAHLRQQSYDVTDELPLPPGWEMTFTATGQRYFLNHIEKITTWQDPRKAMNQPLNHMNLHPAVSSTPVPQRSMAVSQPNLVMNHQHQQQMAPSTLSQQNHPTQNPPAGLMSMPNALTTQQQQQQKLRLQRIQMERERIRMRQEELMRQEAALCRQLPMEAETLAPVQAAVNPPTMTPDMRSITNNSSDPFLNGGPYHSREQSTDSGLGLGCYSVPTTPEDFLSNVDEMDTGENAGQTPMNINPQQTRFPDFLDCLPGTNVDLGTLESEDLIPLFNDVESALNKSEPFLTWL

binding [1]: binds
Molecule: YAP (endogenous, HUVECs) (from UniProt P46937 1-504)

binding [1]: binds
Molecule: TAZ (endogenous, HUVECs) (from UniProt Q9GZV5 1-400)

binding [2]: binds
B1: FAT1 intracellular domain fused with glutathion-S-transferase (domain or fragment, UniProt Q14517 4203-4588)
chain: RKMISRKKKHQAEPKDKHLGPATAFLQRPYFDSKLNKNIYSDIPPQVPVRPISYTPSIPSDSRNNLDRNSFEGSAIPEHPEFSTFNPESVHGHRKAVAVCSVAPNLPPPPPSNSPSDSDSIQKPSWDFDYDTKVVDLDPCLSKKPLEEKPSQPYSARESLSEVQSLSSFQSESCDDNGYHWDTSDWMPSVPLPDIQEFPNYEVIDEQTPLYSADPNAIDTDYYPGGYDIESDFPPPPEDFPAADELPPLPPEFSNQFESIHPPRDMPAAGSLGSSSRNRQRFNLNQYLPNFYPLDMSEPQTKGTGENSTCREPHAPYPPGYQRHFEAPAVESMPMSVYASTASCSDVSACCEVESEVMMSDYESGDDGHFEEVTIPPLDSQQHTEV
